The supplement of paper PMC10849652
The other results are listed elsewhere or left out.

Amino acid sequences for entries named in this document (tags omitted). A change or cut given only in a name is not applied to a line headed by its entry.
UniProt P04843: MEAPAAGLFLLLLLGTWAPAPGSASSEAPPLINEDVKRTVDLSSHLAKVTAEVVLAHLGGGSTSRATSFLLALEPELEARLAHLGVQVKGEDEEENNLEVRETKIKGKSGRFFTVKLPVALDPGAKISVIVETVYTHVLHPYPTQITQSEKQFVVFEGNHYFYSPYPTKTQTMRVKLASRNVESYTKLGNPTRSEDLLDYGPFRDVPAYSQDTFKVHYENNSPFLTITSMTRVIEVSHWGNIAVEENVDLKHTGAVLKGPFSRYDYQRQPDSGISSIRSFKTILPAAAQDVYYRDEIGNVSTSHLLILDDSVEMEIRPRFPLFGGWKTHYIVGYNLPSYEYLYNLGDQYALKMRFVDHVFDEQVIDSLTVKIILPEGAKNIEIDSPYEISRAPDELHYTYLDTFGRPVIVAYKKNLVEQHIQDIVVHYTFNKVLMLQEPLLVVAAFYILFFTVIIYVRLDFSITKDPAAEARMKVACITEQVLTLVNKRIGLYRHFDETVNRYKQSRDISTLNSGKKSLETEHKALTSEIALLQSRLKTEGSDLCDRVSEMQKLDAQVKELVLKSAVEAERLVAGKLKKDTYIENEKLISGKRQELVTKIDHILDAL
UniProt Q9H633: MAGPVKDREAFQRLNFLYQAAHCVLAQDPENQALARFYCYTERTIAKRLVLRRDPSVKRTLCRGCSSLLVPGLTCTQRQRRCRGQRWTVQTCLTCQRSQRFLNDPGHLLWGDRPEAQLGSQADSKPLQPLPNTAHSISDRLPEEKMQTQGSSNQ
UniProt Q5VT52: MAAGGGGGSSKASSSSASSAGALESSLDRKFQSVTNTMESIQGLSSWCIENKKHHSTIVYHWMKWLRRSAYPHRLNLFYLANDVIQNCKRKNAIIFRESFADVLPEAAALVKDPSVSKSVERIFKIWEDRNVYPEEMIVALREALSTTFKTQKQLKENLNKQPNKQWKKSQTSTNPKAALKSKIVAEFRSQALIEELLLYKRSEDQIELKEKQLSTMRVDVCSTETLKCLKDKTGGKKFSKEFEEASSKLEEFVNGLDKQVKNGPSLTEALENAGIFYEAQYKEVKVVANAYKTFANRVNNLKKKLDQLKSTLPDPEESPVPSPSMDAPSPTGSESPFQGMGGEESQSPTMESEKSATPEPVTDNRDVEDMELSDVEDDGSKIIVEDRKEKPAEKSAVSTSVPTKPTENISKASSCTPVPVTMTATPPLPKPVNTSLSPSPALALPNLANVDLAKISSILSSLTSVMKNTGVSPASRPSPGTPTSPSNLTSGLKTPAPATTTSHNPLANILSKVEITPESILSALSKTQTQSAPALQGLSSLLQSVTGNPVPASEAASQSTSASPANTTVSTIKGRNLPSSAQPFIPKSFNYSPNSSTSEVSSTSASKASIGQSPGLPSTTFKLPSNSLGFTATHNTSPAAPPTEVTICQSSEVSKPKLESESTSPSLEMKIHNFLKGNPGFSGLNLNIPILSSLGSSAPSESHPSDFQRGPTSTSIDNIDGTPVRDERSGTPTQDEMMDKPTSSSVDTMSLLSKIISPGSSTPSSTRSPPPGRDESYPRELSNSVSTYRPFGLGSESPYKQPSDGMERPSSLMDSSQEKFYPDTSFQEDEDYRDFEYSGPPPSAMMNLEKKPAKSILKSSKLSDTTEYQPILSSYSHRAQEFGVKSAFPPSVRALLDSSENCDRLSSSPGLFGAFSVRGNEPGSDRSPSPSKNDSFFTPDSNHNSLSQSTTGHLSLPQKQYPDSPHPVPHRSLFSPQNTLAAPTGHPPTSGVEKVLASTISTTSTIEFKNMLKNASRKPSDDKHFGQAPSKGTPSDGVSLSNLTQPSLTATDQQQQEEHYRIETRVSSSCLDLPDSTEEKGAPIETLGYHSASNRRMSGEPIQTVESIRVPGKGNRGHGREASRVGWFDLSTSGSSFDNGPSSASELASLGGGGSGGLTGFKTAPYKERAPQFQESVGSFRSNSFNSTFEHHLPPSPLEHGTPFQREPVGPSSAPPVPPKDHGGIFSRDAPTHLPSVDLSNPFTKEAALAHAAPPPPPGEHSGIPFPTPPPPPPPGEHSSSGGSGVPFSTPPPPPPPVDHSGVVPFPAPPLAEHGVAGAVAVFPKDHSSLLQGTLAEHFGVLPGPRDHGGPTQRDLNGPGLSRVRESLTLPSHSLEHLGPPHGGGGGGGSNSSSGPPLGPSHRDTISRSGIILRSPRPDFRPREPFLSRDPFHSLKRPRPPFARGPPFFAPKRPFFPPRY
UniProt Q99942: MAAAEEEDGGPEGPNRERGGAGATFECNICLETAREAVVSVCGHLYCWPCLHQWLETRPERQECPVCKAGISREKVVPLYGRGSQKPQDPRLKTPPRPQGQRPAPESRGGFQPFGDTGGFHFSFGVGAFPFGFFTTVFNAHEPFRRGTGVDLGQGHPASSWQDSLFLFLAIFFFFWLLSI
UniProt P78317: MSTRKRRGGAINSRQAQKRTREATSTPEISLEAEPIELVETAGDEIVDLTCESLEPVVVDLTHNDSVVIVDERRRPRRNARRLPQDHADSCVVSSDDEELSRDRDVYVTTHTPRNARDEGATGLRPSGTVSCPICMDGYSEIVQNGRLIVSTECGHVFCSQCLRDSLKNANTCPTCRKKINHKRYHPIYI
UniProt Q86UA6: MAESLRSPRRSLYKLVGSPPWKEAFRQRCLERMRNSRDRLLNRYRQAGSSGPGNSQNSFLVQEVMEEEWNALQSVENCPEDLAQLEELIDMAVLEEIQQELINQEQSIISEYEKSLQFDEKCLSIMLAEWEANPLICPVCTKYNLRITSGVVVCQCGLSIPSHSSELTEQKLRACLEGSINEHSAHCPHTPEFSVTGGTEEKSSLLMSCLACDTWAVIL

Experiments:
Experiment in all cases: log2 fold change, soluble protein after heating vs DMSO (PISA); higher = thermal stabilisation; K562 cells, 10 uM, 30 min; active = over 0.2 and 3.5 SD of the protein, either way, in both replicates (recomputed)
[1] = compound: Cc1ccc(NC(=O)c2ccc(CN3CC[C@H](N(C)C)C3)c(C(F)(F)F)c2)cc1Nc1nccc(-c2cncnc2)n1 [bafetinib]
Summary of the method: (§1)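 Aliquots of K562 cells (2×10^6 cells/mL) treated with 10 μM compound for 30 min were heated for 3 min over 48°C-58°C. After pooling and extraction in PBS with 0.5% NP-40 at 4°C, soluble protein from a 21,000xg, 90 min spin was quantified by TMTpro 16plex LC-MS/MS with channel sums equalised. Thermal stability is expressed against control samples, from duplicates, as a log2 fold change.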

[2] = compound: Cc1cccc(CC(=O)N2CCc3c2ccc(-c2cn(C)c4ncnc(N)c24)c3F)n1
Summary of the method: as §1

[3] = compound: Cc1cn(-c2cc(NC(=O)c3ccc(C)c(Nc4nccc(-c5cccnc5)n4)c3)cc(C(F)(F)F)c2)cn1 [nilotinib]
Summary of the method: as §1

[4] = compound: Cc1nc(Nc2n[nH]c3c2CN(C(=O)N[C@H](CN(C)C)c2ccccc2)C3(C)C)c2sccc2n1
Summary of the method: as §1

[5] = compound: Cc1nc(Nc2ncc(C(=O)Nc3c(C)cccc3Cl)s2)cc(N2CCN(CCO)CC2)n1 [dasatinib]
Summary of the method: as §1

[6] = compound: Cc1ncc(-c2ccnc(Nc3ccc(S(C)(=O)=O)cc3)n2)n1C(C)C
Summary of the method: as §1

[7] = compound: Cn1cc(-c2ccc3c(c2)CCN3C(=O)Cc2cccc(C(F)(F)F)c2)c2c(N)ncnc21
Summary of the method: as §1

[8] = compound: Cn1cc(-c2ccc3nnc(C(F)(F)c4ccc5ncccc5c4)n3n2)cn1
Summary of the method: as §1

[9] = compound: Cn1cncc1[C@@](N)(c1ccc(Cl)cc1)c1ccc2c(c1)c(-c1cccc(Cl)c1)cc(=O)n2C [tipifarnib]
Summary of the method: as §1

[10] = compound: FC(F)(F)c1ccc(/C=C/c2nc(COc3ccc(CCCCn4ccnn4)cc3)co2)cc1 [mubritinib]
Summary of the method: as §1

[11] = compound: NC(=O)Nc1cc(-c2cccc(F)c2)sc1C(=O)N[C@H]1CCCNC1
Summary of the method: as §1

[12] = compound: NC(=O)c1cnc(N[C@@H]2CCCC[C@@H]2N)nc1Nc1cccc(-n2nccn2)c1
Summary of the method: as §1

[13] = compound: NC1(c2ccc(-c3nc4ccn5c(=O)[nH]nc5c4cc3-c3ccccc3)cc2)CCC1
Summary of the method: as §1

[14] = compound: NCC(=O)Nc1ccc(-n2nc(C(F)(F)F)cc2-c2ccc3c(ccc4ccccc43)c2)cc1
Summary of the method: as §1

[15] = compound: Nc1ccccc1NC(=O)c1ccc(CNC(=O)OCc2cccnc2)cc1 [entinostat]
Summary of the method: as §1

[16] = compound: O=C(CCCCCCC(=O)Nc1ccccc1)NO [vorinostat]
Summary of the method: as §1

[17] = compound: O=C(CCCCCCNC(=O)c1cnc(N(c2ccccc2)c2ccccc2Cl)nc1)NO [citarinostat]
Summary of the method: as §1

[18] = compound: O=C(O)c1ccc2c(c1)nc(Nc1cccc(Cl)c1)c1ccncc12 [silmitasertib]
Summary of the method: as §1

[19] = compound: O=C1NC(=O)C(c2cnc3ccccn23)=C1c1cn2c3c(cc(F)cc13)CN(C(=O)N1CCCCC1)CC2
Summary of the method: as §1

[20] = compound: c1cc(OCCN2CCCCC2)cc(-c2n[nH]c3ccc(-c4nnc[nH]4)cc23)c1
Summary of the method: as §1

Measured: log2 fold change

RPL9 (UniProt P32969)
inactive: [1] 0.499 | [2] 0 | [3] -0.001 | [4] 0.3 | [5] 0.308 | [6] -0.055 | [7] -0.458 | [8] -0.256 | [9] 0.268 | [10] -0.343 | [11] 0.236 | [12] 0.22 | [13] 0.398 | [14] 0.249 | [15] -0.076 | [16] -0.014 | [17] -0.216 | [18] 0.203 | [19] 0.33 | [20] -0.383

RPN1 (UniProt P04843)
inactive: [1] -0.06 | [2] 0.009 | [3] -0.038 | [4] 0.007 | [5] -0.056 | [6] -0.03 | [7] -0.006 | [8] 0.026 | [9] -0.009 | [10] 0.018 | [11] -0.026 | [12] -0.043 | [13] -0.068 | [14] -0.053 | [15] 0.014 | [16] 0.032 | [17] 0.024 | [18] -0.016 | [19] -0.061 | [20] -0.03

RPS5 (UniProt P46782)
inactive: [1] 0.2 | [2] 0.002 | [3] 0.046 | [4] 0.178 | [5] 0.069 | [6] -0.035 | [7] -0.122 | [8] -0.08 | [9] 0.042 | [10] 0.007 | [11] 0.035 | [12] 0.105 | [13] 0.153 | [14] 0.133 | [15] -0.043 | [16] 0 | [17] -0.052 | [18] -0.07 | [19] 0.094 | [20] -0.12

RPLP0 (UniProt P05388)
inactive: [1] 0.513 | [2] 0.013 | [3] -0.019 | [4] 0.218 | [5] 0.347 | [6] -0.033 | [7] -0.579 | [8] -0.23 | [9] 0.424 | [10] -0.338 | [11] 0.123 | [12] 0.127 | [13] 0.441 | [14] 0.293 | [15] -0.159 | [16] -0.021 | [17] -0.185 | [18] 0.196 | [19] 0.308 | [20] -0.31

RPP21 isoform 4 (UniProt Q9H633)
inactive: [1] -0.036 | [2] 0.284 | [3] 0.013 | [4] -0.07 | [5] -0.022 | [6] -0.027 | [7] -0.043 | [8] -0.093 | [9] -0.011 | [10] 0.007 | [11] -0.01 | [12] -0.062 | [13] 0.039 | [14] 0.045 | [15] 0.011 | [16] 0.15 | [17] 0.024 | [18] 0.023 | [19] 0.064 | [20] -0.162

RPL19 (UniProt P84098)
inactive: [1] 0.365 | [2] 0 | [3] 0.033 | [4] 0.177 | [5] 0.129 | [6] -0.024 | [7] -0.304 | [8] -0.212 | [9] 0.237 | [10] -0.206 | [11] 0.155 | [12] 0.152 | [13] 0.368 | [14] 0.187 | [15] -0.08 | [16] 0.029 | [17] -0.137 | [18] 0.123 | [19] 0.254 | [20] -0.193

RPL27 (UniProt P61353)
inactive: [1] 0.491 | [2] 0 | [3] 0.059 | [4] 0.223 | [5] 0.277 | [6] -0.015 | [7] -0.53 | [8] -0.177 | [9] 0.176 | [10] -0.301 | [11] 0.078 | [12] 0.298 | [13] 0.436 | [14] 0.395 | [15] -0.138 | [16] -0.012 | [17] -0.172 | [18] 0.178 | [19] 0.244 | [20] -0.273

RPL5 (UniProt P46777)
inactive: [1] 0.179 | [2] 0 | [3] 0.067 | [4] 0.118 | [5] 0.185 | [6] -0.017 | [7] -0.247 | [8] -0.127 | [9] 0.094 | [10] -0.163 | [11] 0.045 | [12] 0.056 | [13] 0.322 | [14] 0.141 | [15] -0.08 | [16] 0.028 | [17] -0.113 | [18] 0.097 | [19] 0.122 | [20] -0.179

RPL10 (UniProt F8W7C6)
inactive: [1] 0.203 | [2] 0.067 | [3] -0.138 | [4] 0.094 | [6] -0.047 | [7] -0.262 | [9] -0.035 | [10] -0.107 | [11] 0.193 | [13] 0.108 | [14] 0.006 | [15] -0.004 | [16] 0.017 | [17] -0.044 | [18] 0.148 | [19] 0.205 | [20] -0.016

RPRD2 (UniProt Q5VT52)
inactive: [1] 0.252 | [8] 0.095 | [9] -0.006 | [12] -0.05 | [14] -0.021 | [19] -0.016

RNF5 (UniProt Q99942)
inactive: [1] -0.119 | [2] 0.057 | [3] -0.121 | [4] -0.003 | [6] 0 | [7] 0.024 | [8] -0.202 | [9] -0.075 | [10] 0.012 | [11] 0.075 | [12] -0.028 | [13] -0.144 | [14] -0.06 | [15] 0.086 | [16] -0.101 | [17] -0.026 | [18] -0.043 | [19] -0.008 | [20] -0.052

RNF4 (UniProt P78317)
inactive: [1] 0.145 | [3] 0.047 | [4] -0.018 | [6] 0.027 | [9] -0.245 | [10] -0.007 | [11] -0.208 | [12] 0.079 | [13] -0.157 | [15] -0.018 | [18] -0.069 | [19] 0.055

RPAIN isoform 8 (UniProt Q86UA6)
inactive: [1] -0.064 | [5] -0.043 | [7] -0.022 | [8] -0.142 | [9] -0.042 | [11] -0.017 | [12] -0.044 | [14] -0.093 | [15] 0.014 | [19] -0.012

Two entries drawn at random from the list so far, as already listed:
RNF5 (UniProt Q99942)
inactive: [1] -0.119 | [2] 0.057 | [3] -0.121 | [4] -0.003 | [6] 0 | [7] 0.024 | [8] -0.202 | [9] -0.075 | [10] 0.012 | [11] 0.075 | [12] -0.028 | [13] -0.144 | [14] -0.06 | [15] 0.086 | [16] -0.101 | [17] -0.026 | [18] -0.043 | [19] -0.008 | [20] -0.052

RNF4 (UniProt P78317)
inactive: [1] 0.145 | [3] 0.047 | [4] -0.018 | [6] 0.027 | [9] -0.245 | [10] -0.007 | [11] -0.208 | [12] 0.079 | [13] -0.157 | [15] -0.018 | [18] -0.069 | [19] 0.055
